Values from PubChem BioAssay AID1904 (GNF, 2009).
The reagents shown are a selection, not the whole library. 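Lists only primary-screen hits; phenotype classes come from fitted traces, and the underlying luminescence values are not given.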

- Test: 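Knockdowns that alter circadian period or oscillation amplitude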 (follow-up of hits)
- System: human U2OS osteosarcoma cells stably expressing a destabilised luciferase driven by the Bmal1 promoter
- Knock-down reagent: siRNA pair against human genes, 12.5 nM (two siRNAs, 0.5 pmol each, per well)
- Time to read-out: about 3 days after transfection, then luminescence recorded for about 4 days
- Read-out: 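Period and amplitude fitted from detrended luminescence traces taken every 2 hours; duplicate wells averaged, compared with the screen mean and grouped into phenotype classes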
- Active means: 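Scored active if separate single siRNAs repeated the clock phenotype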
- Calls: active = confirmed by single siRNAs; inactive = not confirmed

Target gene	PubChem SID	clock phenotype class	confirmed with single siRNAs	call
ITGA2B	SID85100261	longer clock period; seen with two independent siRNA pairs for the gene	phenotype reproduced by individual siRNAs	active
ITGA2B	SID85107484	longer clock period; seen with two independent siRNA pairs for the gene	phenotype reproduced by individual siRNAs	active
SART3	SID85115301	longer clock period; seen with two independent siRNA pairs for the gene	phenotype reproduced by individual siRNAs	active
SART3	SID85126125	longer clock period; seen with two independent siRNA pairs for the gene	phenotype reproduced by individual siRNAs	active
FLJ20508	SID85117345	shorter clock period; seen with two independent siRNA pairs for the gene	phenotype reproduced by individual siRNAs	active
FLJ20508	SID85128169	shorter clock period; seen with two independent siRNA pairs for the gene	phenotype reproduced by individual siRNAs	active
INPP5D	SID85105303	higher rhythm amplitude; seen with one siRNA pair in duplicate wells	phenotype not reproduced by individual siRNAs	inconclusive
INPP5D	SID85112526	higher rhythm amplitude; seen with one siRNA pair in duplicate wells	phenotype not reproduced by individual siRNAs	inconclusive
RANBP6	SID85116231	shorter clock period; seen with one siRNA pair in duplicate wells	phenotype reproduced by individual siRNAs	active
RANBP6	SID85127055	shorter clock period; seen with one siRNA pair in duplicate wells	phenotype reproduced by individual siRNAs	active
MGC16733	SID85119616	longer clock period; seen with two independent siRNA pairs for the gene	not retested with individual siRNAs	
MGC16733	SID85130440	longer clock period; seen with two independent siRNA pairs for the gene	not retested with individual siRNAs	
KIAA0882	SID85115960	shorter clock period; seen with one siRNA pair in duplicate wells	phenotype reproduced by individual siRNAs	active
KIAA0882	SID85126784	shorter clock period; seen with one siRNA pair in duplicate wells	phenotype reproduced by individual siRNAs	active
PWP2H	SID85114371	longer clock period; seen with two independent siRNA pairs for the gene	phenotype reproduced by individual siRNAs	active
PWP2H	SID85125195	longer clock period; seen with two independent siRNA pairs for the gene	phenotype reproduced by individual siRNAs	active
HRB2	SID85115697	longer clock period; seen with two independent siRNA pairs for the gene	not retested with individual siRNAs	
HRB2	SID85126521	longer clock period; seen with two independent siRNA pairs for the gene	not retested with individual siRNAs	
SLC39A12	SID85121100	higher rhythm amplitude; seen with one siRNA pair in duplicate wells	phenotype not reproduced by individual siRNAs	inconclusive
SLC39A12	SID85131924	higher rhythm amplitude; seen with one siRNA pair in duplicate wells	phenotype not reproduced by individual siRNAs	inconclusive
DMAP1	SID85117770	higher rhythm amplitude; seen with two independent siRNA pairs for the gene	phenotype reproduced by individual siRNAs	active
DMAP1	SID85128594	higher rhythm amplitude; seen with two independent siRNA pairs for the gene	phenotype reproduced by individual siRNAs	active
SCARA3	SID85103027	shorter clock period; seen with two independent siRNA pairs for the gene	phenotype reproduced by individual siRNAs	active
SCARA3	SID85110250	shorter clock period; seen with two independent siRNA pairs for the gene	phenotype reproduced by individual siRNAs	active
TSHB	SID85101397	longer clock period; seen with two independent siRNA pairs for the gene	phenotype reproduced by individual siRNAs	active
TSHB	SID85108620	longer clock period; seen with two independent siRNA pairs for the gene	phenotype reproduced by individual siRNAs	active
MPN2	SID85104152	longer clock period; seen with two independent siRNA pairs for the gene	phenotype reproduced by individual siRNAs	active
MPN2	SID85111375	longer clock period; seen with two independent siRNA pairs for the gene	phenotype reproduced by individual siRNAs	active
DDX56	SID85116923	shorter clock period; seen with one siRNA pair in duplicate wells	phenotype reproduced by individual siRNAs	active
DDX56	SID85127747	shorter clock period; seen with one siRNA pair in duplicate wells	phenotype reproduced by individual siRNAs	active
CSE1L	SID85099218	longer clock period; seen with two independent siRNA pairs for the gene	phenotype reproduced by individual siRNAs	active
CSE1L	SID85106441	longer clock period; seen with two independent siRNA pairs for the gene	phenotype reproduced by individual siRNAs	active
CX3CL1	SID85100991	longer clock period; seen with two independent siRNA pairs for the gene	phenotype reproduced by individual siRNAs	active
CX3CL1	SID85108214	longer clock period; seen with two independent siRNA pairs for the gene	phenotype reproduced by individual siRNAs	active
PDE1B	SID85100771	higher rhythm amplitude; seen with one siRNA pair in duplicate wells	phenotype reproduced by individual siRNAs	active
PDE1B	SID85107994	higher rhythm amplitude; seen with one siRNA pair in duplicate wells	phenotype reproduced by individual siRNAs	active
TREM2	SID85102910	higher rhythm amplitude; seen with one siRNA pair in duplicate wells	phenotype not reproduced by individual siRNAs	inconclusive
TREM2	SID85110133	higher rhythm amplitude; seen with one siRNA pair in duplicate wells	phenotype not reproduced by individual siRNAs	inconclusive
GJB7	SID85122004	longer clock period; seen with two independent siRNA pairs for the gene	phenotype reproduced by individual siRNAs	active
ENG	SID85099654	shorter clock period; seen with one siRNA pair in duplicate wells	phenotype reproduced by individual siRNAs	active
ENG	SID85106877	shorter clock period; seen with one siRNA pair in duplicate wells	phenotype reproduced by individual siRNAs	active
ARFIP2	SID85102564	shorter clock period; seen with one siRNA pair in duplicate wells	phenotype not reproduced by individual siRNAs	inconclusive
ARFIP2	SID85109787	shorter clock period; seen with one siRNA pair in duplicate wells	phenotype not reproduced by individual siRNAs	inconclusive
FBXO16	SID85104293	shorter clock period; seen with one siRNA pair in duplicate wells	phenotype not reproduced by individual siRNAs	inconclusive
FBXO16	SID85111516	shorter clock period; seen with one siRNA pair in duplicate wells	phenotype not reproduced by individual siRNAs	inconclusive
PDGFC	SID85103302	longer clock period; seen with two independent siRNA pairs for the gene	phenotype reproduced by individual siRNAs	active
PDGFC	SID85110525	longer clock period; seen with two independent siRNA pairs for the gene	phenotype reproduced by individual siRNAs	active
MAP3K11	SID85105552	longer clock period; seen with two independent siRNA pairs for the gene	phenotype reproduced by individual siRNAs	active
MAP3K11	SID85112775	longer clock period; seen with two independent siRNA pairs for the gene	phenotype reproduced by individual siRNAs	active
BTNL2	SID85103184	higher rhythm amplitude; seen with one siRNA pair in duplicate wells	phenotype not reproduced by individual siRNAs	inconclusive
BTNL2	SID85110407	higher rhythm amplitude; seen with one siRNA pair in duplicate wells	phenotype not reproduced by individual siRNAs	inconclusive
BRCA2	SID85099056	higher rhythm amplitude; seen with two independent siRNA pairs for the gene	phenotype reproduced by individual siRNAs	active
BRCA2	SID85106279	higher rhythm amplitude; seen with two independent siRNA pairs for the gene	phenotype reproduced by individual siRNAs	active
KCNV1	SID85102675	higher rhythm amplitude; seen with one siRNA pair in duplicate wells	phenotype not reproduced by individual siRNAs	inconclusive
KCNV1	SID85109898	higher rhythm amplitude; seen with one siRNA pair in duplicate wells	phenotype not reproduced by individual siRNAs	inconclusive
FLJ23514	SID85118037	longer clock period; seen with two independent siRNA pairs for the gene	phenotype reproduced by individual siRNAs	active
FLJ23514	SID85128861	longer clock period; seen with two independent siRNA pairs for the gene	phenotype reproduced by individual siRNAs	active

Part of the list above, reduced to “confirmed with single siRNAs”.
KIAA0882 [SID85126784]	phenotype reproduced by individual siRNAs
PWP2H [SID85114371]	phenotype reproduced by individual siRNAs
PWP2H [SID85125195]	phenotype reproduced by individual siRNAs
HRB2 [SID85115697]	not retested with individual siRNAs
